No constants are given. Whether binding was seen depends on the method and setting. In cells and extracts the contact can be indirect. A yes stands for co-enrichment or nearness to the bait. Other partners may have been found. Where a sequence is shown, tags or fusion partners need not be part of it.
T1: AtMC1^C220A-GFP (catalytically inactive AtMC1 fused to C-terminal GFP), stable Arabidopsis transgenic (Arabidopsis thaliana) (UniProt Q7XJE6)
T1 sequence: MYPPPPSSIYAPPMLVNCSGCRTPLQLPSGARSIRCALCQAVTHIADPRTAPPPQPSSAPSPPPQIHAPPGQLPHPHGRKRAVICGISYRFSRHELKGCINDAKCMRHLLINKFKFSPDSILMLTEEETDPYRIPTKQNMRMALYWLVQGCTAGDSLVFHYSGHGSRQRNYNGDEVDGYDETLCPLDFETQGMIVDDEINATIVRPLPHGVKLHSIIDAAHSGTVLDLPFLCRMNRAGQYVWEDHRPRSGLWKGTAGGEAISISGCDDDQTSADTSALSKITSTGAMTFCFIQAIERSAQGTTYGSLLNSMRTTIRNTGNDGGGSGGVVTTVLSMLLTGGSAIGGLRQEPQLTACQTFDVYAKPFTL

The chains behind the UniProt entries cited, without tags or fusion partners.
UniProt O48538: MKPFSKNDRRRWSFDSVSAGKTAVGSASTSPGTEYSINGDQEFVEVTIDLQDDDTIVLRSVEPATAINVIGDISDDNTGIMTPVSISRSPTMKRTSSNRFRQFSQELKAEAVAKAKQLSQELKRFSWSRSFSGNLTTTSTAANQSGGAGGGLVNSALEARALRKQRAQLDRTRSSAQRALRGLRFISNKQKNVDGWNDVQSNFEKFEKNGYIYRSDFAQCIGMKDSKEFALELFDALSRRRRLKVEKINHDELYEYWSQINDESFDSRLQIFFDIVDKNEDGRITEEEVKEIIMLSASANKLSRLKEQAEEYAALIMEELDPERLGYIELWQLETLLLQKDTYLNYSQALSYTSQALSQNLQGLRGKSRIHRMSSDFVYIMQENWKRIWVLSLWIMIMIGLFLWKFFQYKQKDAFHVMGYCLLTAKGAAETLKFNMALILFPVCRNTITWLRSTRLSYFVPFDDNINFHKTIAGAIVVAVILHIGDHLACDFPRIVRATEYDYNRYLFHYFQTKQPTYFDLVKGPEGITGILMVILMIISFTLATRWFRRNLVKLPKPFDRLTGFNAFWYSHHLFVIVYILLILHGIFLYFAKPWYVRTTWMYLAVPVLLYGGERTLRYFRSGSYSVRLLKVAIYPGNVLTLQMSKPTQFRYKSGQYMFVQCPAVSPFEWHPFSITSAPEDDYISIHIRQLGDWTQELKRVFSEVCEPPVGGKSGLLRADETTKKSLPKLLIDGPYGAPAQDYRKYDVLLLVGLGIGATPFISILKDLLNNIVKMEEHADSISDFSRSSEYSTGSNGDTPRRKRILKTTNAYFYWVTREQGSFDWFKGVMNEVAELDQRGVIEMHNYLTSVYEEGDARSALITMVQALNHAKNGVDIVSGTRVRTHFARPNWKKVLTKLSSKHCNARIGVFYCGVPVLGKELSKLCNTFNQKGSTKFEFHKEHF


Target: T1, AtMC1^C220A-GFP (catalytically inactive AtMC1 fused to C-terminal GFP), stable Arabidopsis transgenic (Arabidopsis thaliana)
Assay: affinity purification with mass spectrometry

| Molecule | binding |
| --- | --- |
| RBOHF, endogenous in Arabidopsis (from UniProt O48538 1-944) (enzyme) | binds |
| SSI4 (AT5G41750), endogenous in Arabidopsis (receptor) | binds |
| RPS2, endogenous in Arabidopsis (receptor, UniProt Q42484 1-909) MDFISSLIVGCAQVLCESMNMAERRGHKTDLRQAITDLETAIGDLKAIRDDLTLRIQQDGLEGRSCSNRAREWLSAVQVTETKTALLLVRFRRREQRTRMRRRYLSCFGCADYKLCKKVSAILKSIGELRERSEAIKTDGGSIQVTCREIPIKSVVGNTTMMEQVLEFLSEEEERGIIGVYGPGGVGKTTLMQSINNELITKGHQYDVLIWVQMSREFGECTIQQAVGARLGLSWDEKETGENRALKIYRALRQKRFLLLLDDVWEEIDLEKTGVPRPDRENKCKVMFTTRSIALCNNMGAEYKLRVEFLEKKHAWELFCSKVWRKDLLESSSIRRLAEIIVSKCGGLPLALITLGGAMAHRETEEEWIHASEVLTRFPAEMKGMNYVFALLKFSYDNLESDLLRSCFLYCALFPEEHSIEIEQLVEYWVGEGFLTSSHGVNTIYKGYFLIGDLKAACLLETGDEKTQVKMHNVVRSFALWMASEQGTYKELILVEPSMGHTEAPKAENWRQALVISLLDNRIQTLPEKLICPKLTTLMLQQNSSLKKIPTGFFMHMPVLRVLDLSFTSITEIPLSIKYLVELYHLSMSGTKISVLPQELGNLRKLKHLDLQRTQFLQTIPRDAICWLSKLEVLNLYYSYAGWELQSFGEDEAEELGFADLEYLENLTTLGITVLSLETLKTLFEFGALHKHIQHLHVEECNELLYFNLPSLTNHGRNLRRLSIKSCHDLEYLVTPADFENDWLPSLEVLTLHSLHNLTRVWGNSVSQDCLRNIRCINISHCNKLKNVSWVQKLPKLEVIELFDCREIEELISEHESPSVEDPTLFPSLKTLRTRDLPELNSILPSRFSFQKVETLVITNCPRVKKLPFQERRTQMNLPTVYCEEKWWKALEKDQPNEELCYLPRFVPN | binds |
| RECEPTOR-LIKE PROTEIN 42 (RLP42), endogenous in Arabidopsis (receptor, UniProt Q9LJS0 22-890) SSFFTFNNPAEGPGACGPHQIQAFTQFKNEFDTRACNHSDPWNGVWCDNSTGAVTMLQLRACLSGTLKPNSSLFQFHHLRSLLLPHNNFTSSSISSKFGMLNNLEVLSLSSSGFLAQVPFSFSNLSMLSALDLSKNELTGSLSFVRNLRKLRVLDVSYNHFSGILNPNSSLFELHHLIYLNLRYNNFTSSSLPYEFGNLNKLEVLDVSSNSFFGQVPPTISNLTQLTELYLPLNDFTGSLPLVQNLTKLSILHLFGNHFSGTIPSSLFTMPFLSSIYLNKNNLSGSIEVPNSSSSSRLEHLYLGKNHLGKILEPIAKLVNLKELDLSFLNTSHPIDLSLFSSLKSLLLLDLSGDWISKASLTLDSYIPSTLEVLRLEHCDISEFPNVFKTLHNLEYIALSNNRISGKFPEWLWSLPRLSSVFITDNLLTGFEGSSEVLVNSSVQILSLDTNSLEGALPHLPLSINYFSAIDNRFGGDIPLSICNRSSLDVLDLSYNNFSGQIPPCLSNLLYLKLRKNNLEGSIPDKYYVDTPLRSFDVGYNRLTGKLPRSLINCSALQFLSVDHNGIKDTFPFYLKALPKLQVLLLSSNEFYGPLSPPNQGPLGFPELRILEIAGNKLTGSLPPDFFVNWKASSHTMNEDLGLYMVYSKVIFGNYHLTYYETIDLRYKGLSMEQENVLTSSATIDLSGNRLEGEIPESLGLLKALIALNLSNNAFTGHIPLSLANLKKIESLDLSSNQLSGTIPNGLGTLSFLAYMNVSHNQLNGEIPQGTQITGQPKSSFEGNAGLCGFPLQESCFGTNAPPAQKPKEEEEAEEDEQELNWKAVAIGYGVGVLLGLAIAQLIASYKPEWLVCLVKSRNPLRSFFGFEY | binds |

Source: article doi:10.1101/2025.01.31.635913
